Some results were stated once for a whole list of compounds, not compound by compound.
Assay: Amount of flurbiprofen absorbed in uterine tissue under in-vivo conditions (LC-MS)
Conditions: rat, oral administration 4 mg/kg twice daily; 11 H, 25 H and 15 days

SMILES: CC(C(=O)O)c1ccc(-c2ccccc2)c(F)c1 (stereo not shown) [flurbiprofen]
- tissue concentration of flurbiprofen in uterine tissue: 24 to 39 µg/g
